{
  "source": "the supplement of paper PMC12067093",
  "about": "“Discovery and optimisation of a covalent ligand for TRIM25 and its application to targeted protein ubiquitination” (Chemical Science, 2025)",
  "compound": "CC1Cc2ccccc2N1C(=O)C1CCCN(C1)C(=O)CCl (mixture of isomers) [TRIM25 ligand 11 (diastereomer mixture)]",
  "assay": "probe-labelled cysteine peptide fold change vs DMSO (competition) (log2 fold change); higher = less target engagement (more negative = stronger competition)",
  "settings": "THP-1, incubation time: 4 h",
  "note": "The other results are listed elsewhere or left out.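 Further: competitive chemoproteomic profiling in live THP-1 cells with an iodoacetamide desthiobiotin (IA-DTB) probe, comparing probe-labelled peptide intensities in compound-treated cells against DMSO-treated controls.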",
  "data": [
    {"target": "ELP2_Q6IA86_810_EAEGAEWLHFASCGEDHTVK (UniProt Q6IA86)", "values": [
      {"measurement": "probe-labelled cysteine peptide fold change", "setting": "10 µM", "value": 0.0967},
      {"measurement": "probe-labelled cysteine peptide fold change", "setting": "50 µM", "value": 0.0179}
    ]},
    {"target": "ELAVL1_Q15717_13_SNGYEDHMAEDCRGDIGR (UniProt Q15717)", "values": [
      {"measurement": "probe-labelled cysteine peptide fold change", "setting": "10 µM", "value": 0.0836},
      {"measurement": "probe-labelled cysteine peptide fold change", "setting": "50 µM", "value": 0.0433}
    ]},
    {"target": "EPRS_P07814_1448+1453_IVQIPFCGEIDCEDWIK (UniProt P07814)", "values": [
      {"measurement": "probe-labelled cysteine peptide fold change", "setting": "10 µM", "value": 0.0922},
      {"measurement": "probe-labelled cysteine peptide fold change", "setting": "50 µM", "value": -0.0905}
    ]},
    {"target": "EMC8_O43402_24_YPHCAVNGLLVAEK (UniProt O43402)", "values": [
      {"measurement": "probe-labelled cysteine peptide fold change", "setting": "10 µM", "value": -0.00157},
      {"measurement": "probe-labelled cysteine peptide fold change", "setting": "50 µM", "value": -0.0673}
    ]},
    {"target": "EPC2_Q52LR7_626_AQGSSTSDCMSK (UniProt Q52LR7)", "values": [
      {"measurement": "probe-labelled cysteine peptide fold change", "setting": "10 µM", "value": -0.0677},
      {"measurement": "probe-labelled cysteine peptide fold change", "setting": "50 µM", "value": -0.224}
    ]},
    {"target": "EIF4G3_O43432_928_NHDEESLECLCR (UniProt O43432)", "values": [
      {"measurement": "probe-labelled cysteine peptide fold change", "setting": "10 µM", "value": 0.179},
      {"measurement": "probe-labelled cysteine peptide fold change", "setting": "50 µM", "value": 0.171}
    ]},
    {"target": "EIF3D_O15371_258_TQGNVFATDAILATLMSCTR (UniProt O15371)", "values": [
      {"measurement": "probe-labelled cysteine peptide fold change", "setting": "10 µM", "value": 0.217},
      {"measurement": "probe-labelled cysteine peptide fold change", "setting": "50 µM", "value": 0.233}
    ]},
    {"target": "EPRS_P07814_337_GSQFGQSCCLR (UniProt P07814)", "values": [
      {"measurement": "probe-labelled cysteine peptide fold change", "setting": "10 µM", "value": 0.0735},
      {"measurement": "probe-labelled cysteine peptide fold change", "setting": "50 µM", "value": 0.124}
    ]},
    {"target": "EPB41L2_O43491_248_VCEHLNLLEK (UniProt O43491)", "values": [
      {"measurement": "probe-labelled cysteine peptide fold change", "setting": "10 µM", "value": 0.0945},
      {"measurement": "probe-labelled cysteine peptide fold change", "setting": "50 µM", "value": 0.146}
    ]},
    {"target": "EOGT_Q5NDL2_61_HIATVCR (UniProt Q5NDL2)", "values": [
      {"measurement": "probe-labelled cysteine peptide fold change", "setting": "10 µM", "value": 0.0822},
      {"measurement": "probe-labelled cysteine peptide fold change", "setting": "50 µM", "value": 0.0837}
    ]},
    {"target": "EMC9_Q9Y3B6_177_AHQHLVDFDCHLDDIR (UniProt Q9Y3B6)", "values": [
      {"measurement": "probe-labelled cysteine peptide fold change", "setting": "10 µM", "value": 0.069},
      {"measurement": "probe-labelled cysteine peptide fold change", "setting": "50 µM", "value": -0.124}
    ]},
    {"target": "EP300_Q09472_1176+1177_KLEFSPQTLCCYGK (UniProt Q09472)", "values": [
      {"measurement": "probe-labelled cysteine peptide fold change", "setting": "10 µM", "value": -0.118},
      {"measurement": "probe-labelled cysteine peptide fold change", "setting": "50 µM", "value": -0.147}
    ]},
    {"target": "ELF2_Q15723_348_NSSPINCSR (UniProt Q15723)", "values": [
      {"measurement": "probe-labelled cysteine peptide fold change", "setting": "10 µM", "value": -0.123},
      {"measurement": "probe-labelled cysteine peptide fold change", "setting": "50 µM", "value": -0.156}
    ]},
    {"target": "EIF3D_O15371_404_HCNGVDWR (UniProt O15371)", "values": [
      {"measurement": "probe-labelled cysteine peptide fold change", "setting": "10 µM", "value": -0.0977},
      {"measurement": "probe-labelled cysteine peptide fold change", "setting": "50 µM", "value": -0.0442}
    ]},
    {"target": "ENO1_P06733_337_SCNCLLLK (UniProt P06733)", "values": [
      {"measurement": "probe-labelled cysteine peptide fold change", "setting": "10 µM", "value": -0.0518},
      {"measurement": "probe-labelled cysteine peptide fold change", "setting": "50 µM", "value": 0.0457}
    ]},
    {"target": "ERBIN_Q96RT1_464_AQVAFECDEDK (UniProt Q96RT1)", "values": [
      {"measurement": "probe-labelled cysteine peptide fold change", "setting": "10 µM", "value": 0.442},
      {"measurement": "probe-labelled cysteine peptide fold change", "setting": "50 µM", "value": 0.102}
    ]},
    {"target": "EPRS_P07814_350_IDMSSNNGCMRDPTLYR (UniProt P07814)", "values": [
      {"measurement": "probe-labelled cysteine peptide fold change", "setting": "10 µM", "value": -0.228},
      {"measurement": "probe-labelled cysteine peptide fold change", "setting": "50 µM", "value": -0.16}
    ]},
    {"target": "ELP1_O95163_820_IDLVCDAMR (UniProt O95163)", "values": [
      {"measurement": "probe-labelled cysteine peptide fold change", "setting": "10 µM", "value": 0.425},
      {"measurement": "probe-labelled cysteine peptide fold change", "setting": "50 µM", "value": 0.197}
    ]},
    {"target": "ENOSF1_Q7L5Y1_67_GTEVVVCAVNALAHHVLNK (UniProt Q7L5Y1)", "values": [
      {"measurement": "probe-labelled cysteine peptide fold change", "setting": "10 µM", "value": -0.0438},
      {"measurement": "probe-labelled cysteine peptide fold change", "setting": "50 µM", "value": 0.0621}
    ]},
    {"target": "EPS15_P42566_782_IGTPTRPCPLPPGKR (UniProt P42566)", "values": [
      {"measurement": "probe-labelled cysteine peptide fold change", "setting": "10 µM", "value": -0.193},
      {"measurement": "probe-labelled cysteine peptide fold change", "setting": "50 µM", "value": -0.265}
    ]},
    {"target": "EIF5B_O60841_749_CPFIVALNK (UniProt O60841)", "values": [
      {"measurement": "probe-labelled cysteine peptide fold change", "setting": "10 µM", "value": 0.184},
      {"measurement": "probe-labelled cysteine peptide fold change", "setting": "50 µM", "value": 0.445}
    ]},
    {"target": "EIPR1_Q53HC9_95_VLTCAAVWR (UniProt Q53HC9)", "values": [
      {"measurement": "probe-labelled cysteine peptide fold change", "setting": "10 µM", "value": 0.109},
      {"measurement": "probe-labelled cysteine peptide fold change", "setting": "50 µM", "value": 0.137}
    ]},
    {"target": "EPHX2_P34913_71_GEITLSQWIPLMEENCR (UniProt P34913)", "values": [
      {"measurement": "probe-labelled cysteine peptide fold change", "setting": "10 µM", "value": 0.049},
      {"measurement": "probe-labelled cysteine peptide fold change", "setting": "50 µM", "value": -0.317}
    ]},
    {"target": "ELMO1_Q92556_726_EPSNYDFVYDCN (UniProt Q92556)", "values": [
      {"measurement": "probe-labelled cysteine peptide fold change", "setting": "10 µM", "value": -0.0695},
      {"measurement": "probe-labelled cysteine peptide fold change", "setting": "50 µM", "value": -0.194}
    ]},
    {"target": "EPRS_P07814_623_VTWLAETTHALPIPVICVTYEHLITKPVLGKDEDFK (UniProt P07814)", "values": [
      {"measurement": "probe-labelled cysteine peptide fold change", "setting": "10 µM", "value": -0.0188},
      {"measurement": "probe-labelled cysteine peptide fold change", "setting": "50 µM", "value": 0.0185}
    ]},
    {"target": "EIF3M_Q7L2H7_175_LLYEALVDCK (UniProt Q7L2H7)", "values": [
      {"measurement": "probe-labelled cysteine peptide fold change", "setting": "10 µM", "value": 0.13},
      {"measurement": "probe-labelled cysteine peptide fold change", "setting": "50 µM", "value": 0.226}
    ]},
    {"target": "EIF4G2_P78344_253_DMGEDLECLCQIMR (UniProt P78344)", "values": [
      {"measurement": "probe-labelled cysteine peptide fold change", "setting": "10 µM", "value": -0.0586},
      {"measurement": "probe-labelled cysteine peptide fold change", "setting": "50 µM", "value": -0.0256}
    ]},
    {"target": "EIF3M_Q7L2H7_175_LLYEALVDCKK (UniProt Q7L2H7)", "values": [
      {"measurement": "probe-labelled cysteine peptide fold change", "setting": "10 µM", "value": 0.102},
      {"measurement": "probe-labelled cysteine peptide fold change", "setting": "50 µM", "value": 0.345}
    ]},
    {"target": "EIF4ENIF1_Q9NRA8_767_SSCSTPLSQANR (UniProt Q9NRA8)", "values": [
      {"measurement": "probe-labelled cysteine peptide fold change", "setting": "10 µM", "value": -0.14},
      {"measurement": "probe-labelled cysteine peptide fold change", "setting": "50 µM", "value": -0.276}
    ]},
    {"target": "EIF3H_O15372_177_LMEVCK (UniProt O15372)", "values": [
      {"measurement": "probe-labelled cysteine peptide fold change", "setting": "10 µM", "value": 0.0807},
      {"measurement": "probe-labelled cysteine peptide fold change", "setting": "50 µM", "value": -0.024}
    ]},
    {"target": "ELANE_P08246_55_GGHFCGATLIAPNFVMSAAHCVANVNVR (UniProt P08246)", "values": [
      {"measurement": "probe-labelled cysteine peptide fold change", "setting": "10 µM", "value": -0.0847},
      {"measurement": "probe-labelled cysteine peptide fold change", "setting": "50 µM", "value": 0.148}
    ]},
    {"target": "EML3_Q32P44_604_GDLAQGFSPVIQGHTDELWGLCTHPSQNR (UniProt Q32P44)", "values": [
      {"measurement": "probe-labelled cysteine peptide fold change", "setting": "10 µM", "value": 0.00256},
      {"measurement": "probe-labelled cysteine peptide fold change", "setting": "50 µM", "value": -0.467}
    ]},
    {"target": "EMG1_Q92979_230_MVSISNYPLSAALTCAK (UniProt Q92979)", "values": [
      {"measurement": "probe-labelled cysteine peptide fold change", "setting": "10 µM", "value": 0.154},
      {"measurement": "probe-labelled cysteine peptide fold change", "setting": "50 µM", "value": -0.113}
    ]},
    {"target": "EMC4_Q5J8M3_69_CWDIALGPLK (UniProt Q5J8M3)", "values": [
      {"measurement": "probe-labelled cysteine peptide fold change", "setting": "10 µM", "value": 0.299},
      {"measurement": "probe-labelled cysteine peptide fold change", "setting": "50 µM", "value": 0.14}
    ]},
    {"target": "ENTPD1_P49961_255_DYNVYTHSFLCYGK (UniProt P49961)", "values": [
      {"measurement": "probe-labelled cysteine peptide fold change", "setting": "10 µM", "value": 0.0736},
      {"measurement": "probe-labelled cysteine peptide fold change", "setting": "50 µM", "value": 0.271}
    ]},
    {"target": "ELANE_P08246_151_LGNGVQCLAMGWGLLGR (UniProt P08246)", "values": [
      {"measurement": "probe-labelled cysteine peptide fold change", "setting": "10 µM", "value": -0.0888},
      {"measurement": "probe-labelled cysteine peptide fold change", "setting": "50 µM", "value": -0.107}
    ]},
    {"target": "EPS15_P42566_82_LVACAQNGLEVSLSSLNLAVPPPR (UniProt P42566)", "values": [
      {"measurement": "probe-labelled cysteine peptide fold change", "setting": "10 µM", "value": 0.123},
      {"measurement": "probe-labelled cysteine peptide fold change", "setting": "50 µM", "value": -0.00747}
    ]},
    {"target": "EML2_O95834_604+605_VHLFSYPCCQPR (UniProt O95834)", "values": [
      {"measurement": "probe-labelled cysteine peptide fold change", "setting": "10 µM", "value": -0.129},
      {"measurement": "probe-labelled cysteine peptide fold change", "setting": "50 µM", "value": -0.0141}
    ]}
  ]
}
